No constants are given. Whether binding was seen depends on the method and setting.

For this test, the target named is T1, HilC (Salmonella enterica) (UniProt B8Y8F2).
T1 sequence: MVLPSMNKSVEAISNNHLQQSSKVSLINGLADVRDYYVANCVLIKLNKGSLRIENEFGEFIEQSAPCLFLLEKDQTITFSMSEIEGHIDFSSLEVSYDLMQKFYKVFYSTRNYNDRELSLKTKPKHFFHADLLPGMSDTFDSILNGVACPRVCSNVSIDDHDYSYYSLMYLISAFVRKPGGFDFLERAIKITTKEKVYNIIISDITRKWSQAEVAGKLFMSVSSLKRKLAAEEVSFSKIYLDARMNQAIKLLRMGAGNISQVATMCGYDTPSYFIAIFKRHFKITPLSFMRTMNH
Briefly: SEC-MALS.

As to HilE (Salmonella enterica), the binding entry is “no binding (tested: 50 μM)”.

The record behind these values is article doi:10.1101/2023.02.23.529715.
